PubChem BioAssay AID624297 (National Center for Advancing Translational Sciences (NCATS), 2012)
Out of some 340,000 compounds screened, about 6,200 (1.8%) were called active. The shares of active, inactive and inconclusive entries below differ from those in the screen. Calls come from the whole dose curve; as a rule, active = well fitted activation curve with a large enough effect; inconclusive = small, poorly fitted or top-dose-only effect; inactive = no such curve, though single readings can be large or run the other way. Where the call is inconclusive, the potency comes from a doubtful curve fit.

assay: A quantitative high throughput screen for small molecules that induce DNA re-replication in SW480 colon adenocarcinoma cells.; note: nearly all actives have a fitted effect of over 55% in size; for re-replication activation: % of control where 0% means no effect; details: Hoechst DNA content imaging, 48 h; re-replication activation: at 46.1 µM (top of the series)
In short: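 Cells (250 per well) received 23 nL compound or DMSO by pin tool and were kept 48 hr at 37 C, 5% CO2. Nuclei were then stained with Hoechst for 40 min and scanned for DNA content.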
Potency is the fitted concentration of half-maximal effect.

Row | Compound | Potency | re-replication activation
1 | C/C(=N\NS(=O)(=O)c1ccc([N+](=O)[O-])cc1)c1c[nH]c2ccccc12 | inconclusive: 29.1 µM [activator, single point] | –
2 | N=C1c2ccccc2-c2ccccc21 | – | inactive: -2.91%
3 | CCN(CC)S(=O)(=O)c1ccc(N2C(=O)CC2(/C=C/c2ccccc2)C(=O)NC2CCCC2)cc1 (stereo unspecified) | inconclusive: 1.46 µM [activator, partial curve, poor fit] | –
4 | CCCc1cc(N2CCC(C(N)=O)CC2)nc(-c2ccccc2)n1 | inconclusive: 23.1 µM [activator, partial curve, poor fit] | –
5 | O=C(N/N=C/c1cc(Br)c(O)c(Br)c1O)c1cccnc1 | inconclusive: 29.1 µM [activator, single point] | –
6 | COc1cccc(/C=N/NC(=O)C(=O)NCc2cccnc2)c1OC | – | inactive: -7.04%
7 | Cc1ccc(C)c2[nH]c(=O)c(CN(Cc3ccc4c(c3)OCO4)Cc3nnnn3Cc3ccco3)cc12 | inconclusive: 16.4 µM [activator, partial curve, poor fit] | –
8 | CCCC(=O)N(Cc1cc(=O)[nH]c2ccccc12)c1ccc(OC)cc1 | – | inactive: -5.73%
9 | C=CCN(CC=C)CC(O)Cn1c2ccccc2c2ccccc21 (stereo unspecified) | – | inactive: -6.26%
10 | CNc1nc(=S)[nH]c2ccccc12 | inconclusive: 18.4 µM [activator, single point] | –
11 | CCCCN1CCc2c(c3ccccc3n2Cc2ccccc2)C1 | inconclusive: 0.461 µM [activator, full curve] | –
12 | Cn1c(SCc2ccccc2)nnc1-c1cccs1 | – | inactive: -2.58%
13 | Cc1cc(C)c(C(N)=O)c(Nc2cccc(Cl)c2)n1 | inconclusive: 23.1 µM [activator, single point] | –
14 | O=C(Nc1cccc([N+](=O)[O-])c1)Nc1cnccn1 | inconclusive: 23.1 µM [activator, single point] | –
15 | O=C(Nc1ccccc1)Nc1nc(-c2ccccc2)cs1 | – | inactive: 10.1%
16 | CCOc1cc(CNCCO)cc(Br)c1OCc1ccc(Cl)cc1Cl | inconclusive: 18.4 µM [activator, single point] | –
17 | CC(C)CCSc1nnc(N)s1 | inconclusive: 3.26 µM [activator, partial curve, poor fit] | –
18 | O=C(OCc1nnc(-c2ccccc2)o1)c1ccc(-n2cnnn2)cc1 | inconclusive: 29.1 µM [activator, single point] | –
19 | CC(=O)c1c(C)[nH]c(C(=O)OCC(=O)c2ccc(C)s2)c1C | inconclusive: 3.26 µM [activator, single point] | –
20 | CC(C)(C)OC(=O)[C@H](Cc1ccccc1)NC(=O)c1nc[nH]c1C(=O)NCc1ccccc1 | – | inactive: 0.191%
21 | CCc1cc2c(SCC(=O)N(C)C3CCS(=O)(=O)C3)ncnc2s1 (stereo unspecified) | – | inactive: 1.65%
22 | CC(C)Cc1nc2sc3c(NCc4ccco4)ncnc3c2c2c1COC(C)(C)C2 | – | inactive: -0.349%
23 | Cc1cc(C(=O)CN2C(=O)C(=O)N(C3CCCC3)C2=O)c(C)n1CCc1ccc(F)cc1 | – | inactive: -32.4%
24 | N#Cc1cccc(NCC(=O)Nc2cccc(S(=O)(=O)N3CCCCC3)c2)c1 | inconclusive: 18.4 µM [activator, single point] | –

Reprinted, nos. 10 to 13
Row | Compound | Potency | re-replication activation
10 | CNc1nc(=S)[nH]c2ccccc12 | inconclusive: 18.4 µM [activator, single point] | –
11 | CCCCN1CCc2c(c3ccccc3n2Cc2ccccc2)C1 | inconclusive: 0.461 µM [activator, full curve] | –
12 | Cn1c(SCc2ccccc2)nnc1-c1cccs1 | – | inactive: -2.58%
13 | Cc1cc(C)c(C(N)=O)c(Nc2cccc(Cl)c2)n1 | inconclusive: 23.1 µM [activator, single point] | –

Continued:

Row | Compound | Potency | re-replication activation
25 | COc1ccccc1Cc1nc2ccccc2n1S(=O)(=O)c1ccc(Cl)cc1 | inconclusive: 2.59 µM [activator, single point] | –
26 | CCC(=O)N(CCC1(C(C)C)CCOC(C)(C)C1)Cc1ccco1 (stereo unspecified) | – | inactive: 11.4%
27 | CN(C)S(=O)(=O)c1ccc(C(=O)NCc2nnc(SCC(=O)N3CCCCCC3)o2)cc1 | – | inactive: -2.82%
28 | COc1cccc2cc(C(=O)C3=C(O)C(=O)N(CCN4CCOCC4)C3c3ccc(Cl)cc3)oc12 (stereo unspecified) | inconclusive: 29.1 µM [activator, partial curve, poor fit] | –
29 | CC1(C)CC(=O)C(N=Nc2ccc(C(F)(F)F)cc2[N+](=O)[O-])=C(O)C1 | – | inactive: -14.4%
30 | OC1(c2ccccc2)CN(c2ccccc2)C2=[N+]1CCS2 (stereo unspecified) | inconclusive: 29.1 µM [activator, single point] | –
31 | Cc1cc(NCc2ccccn2)n2nc(C)c(-c3ccccc3)c2n1 | inconclusive: 5.8 µM [activator, full curve, poor fit] | –
32 | COc1ccccc1-n1c(SCc2cc(=O)oc3cc(O)ccc23)nc2ccccc2c1=O | – | inactive: 4.18%
33 | O=C(C=Cc1ccccn1)c1ccccc1 | inconclusive: 25.9 µM [activator, single point] | –
34 | CCn1c(=O)c(=O)[nH]c2cc(C(=O)NC3CCCc4ccccc43)ccc21 (stereo unspecified) | inconclusive: 29.1 µM [activator, single point] | –
35 | COc1ccc(N(CC(=O)Nc2cc(Cl)ccc2C)S(=O)(=O)c2c(C)noc2C)cc1 | – | inactive: -2.88%
36 | CCc1ccc(-c2cc(C(F)(F)F)n3nc(C(=O)Nc4c(C)nn(Cc5ccccc5Cl)c4C)cc3n2)s1 | active: 10.3 µM | –
37 | COc1ccc(CN2CCC3CC2c2cc(Cl)ccc23)cc1 (stereo unspecified) | – | inactive: -3.69% [at 9.22 µM]
38 | N#Cc1c(N2CCOCC2)nc(N)c2c(N)nc3c(c12)CC(CCl)O3 (stereo unspecified) | inconclusive: 20.6 µM [activator, single point] | –
39 | Oc1ccc(-c2cccc(-c3ccc(O)cc3)c2)cc1 | – | inconclusive: 17.1% [activator]
40 | Nc1nnc(SCC(=O)Nc2ccc(N3CCOCC3)c(Cl)c2)s1 | inconclusive: 29.1 µM [activator, single point] | –
41 | OC(CN1CCN(c2ccccc2)CC1)c1c[nH]c2ccccc12 (stereo unspecified) | inconclusive: 29.1 µM [activator, single point] | –
42 | CCn1c2ccccc2c2cc(NC(=O)CSc3nnc(-c4cccc(C)c4)o3)ccc21 | inconclusive: 23.1 µM [activator, partial curve, poor fit] | –
43 | COc1nc(-c2ccc(Cl)cc2)ccc1-c1noc(-c2cccs2)n1 | inconclusive: 29.1 µM [activator, single point] | –
44 | O=C(O)c1cc2ccccc2cc1Nc1ccccc1 | inconclusive: 29.1 µM [activator, single point] | –
45 | COc1ccc(CCNC(=O)CC2SC(N)=NC2=O)cc1OC (stereo unspecified) | inconclusive: 6.51 µM [activator, single point] | –
46 | CCOc1ccccc1N1CC(O)=C(c2nc3ccccc3s2)C1=N | – | inactive: -1.26%
47 | CN1CCN(C(=O)CCCN2C(=O)/C(=C/c3cccc(Br)c3)SC2=S)CC1 | inconclusive: 23.1 µM [activator, single point] | –
48 | CCC(C)(C)NC(=O)C(C(C)C)N(CC1CCCO1)C(=O)CNS(=O)(=O)c1ccc(F)cc1 (stereo unspecified) | – | inactive: -16.6%

Row | Compound | Potency | re-replication activation
49 | Cc1cc(OCc2cc(C(=O)N3CCC(Oc4cccnc4)CC3)no2)cc(C)c1Cl | – | inactive: 1.95%
50 | CC(=O)N(c1cccc(Cl)c1)c1nc(C)cc(C)c1C#N | inconclusive: 4.61 µM [activator, full curve, poor fit] | –
51 | O=Nc1c(O)n(Cc2ccc(Cl)cc2)c2ccccc12 | – | inactive: 13.4%
52 | CCc1nc2sc3c(=O)[nH]cnc3c2c2c1CSC(C)(C)C2 | inconclusive: 29.1 µM [activator, single point] | –
53 | Cc1ccc(S(=O)(=O)NCCC(=O)NNC(=O)c2ccccc2O)cc1C | inconclusive: 20.6 µM [activator, single point] | –
54 | COc1ccc(C2C3=C(CC(C)(C)CC3=O)Nc3c2c(=O)[nH]c(=O)n3Cc2ccccc2)cc1 (stereo unspecified) | inconclusive: 18.4 µM [activator, single point] | –
55 | O=C(/C=C/c1ccc(Br)cc1)c1ccc(NC2=NCCCS2)cc1 | active: 4.61 µM | –
56 | Cc1ccccc1-c1cccc([C@@H]2C[C@H]3[C@H](CON3C)CN2S(=O)(=O)c2ccccc2C)c1 | – | inactive: 1.66%
57 | O=C1c2ccccc2-c2onc3ccc(NCc4ccco4)c1c23 | inconclusive: 0.92 µM [activator, full curve, poor fit] | –
58 | COc1ccc(N2CCN(C(=O)c3cc4c(s3)CCCCC4)CC2)cc1 | – | inactive: -5.36%
59 | Cc1ccc(NC(=O)COc2ccc(C(=O)c3ccccc3)cc2)c(O)c1 | inconclusive: 29.1 µM [activator, single point] | –
60 | Cc1cccc(C)c1OCc1nc2ccccc2[nH]1 | inconclusive: 0.0164 µM [activator, full curve, poor fit] | –
61 | N/C(=N\OS(=O)(=O)c1ccc2ccccc2c1)c1cccnc1 | inconclusive: 29.1 µM [activator, single point] | –
62 | O=C(Oc1ccccc1Cl)c1ccccc1 | – | inactive: 15%
63 | CCOC(=O)/C(C#N)=C/Nc1cc(C(C)(C)C)sc1C(C)=O | inconclusive: 18.4 µM [activator, single point] | –
64 | Cc1cc(C)cc(NS(=O)(=O)c2ccc(NC(=S)NC(=O)c3cccs3)cc2)c1 | inconclusive: 6.51 µM [activator, single point] | –
65 | CCCCNC(=O)N1CCN(S(C)(=O)=O)CC1 | inconclusive: 29.1 µM [activator, single point] | –
66 | CN(C)c1ccc(/C=C/c2cc[n+](C)cc2)cc1 | inconclusive: 9.2 µM [activator, partial curve] | –
67 | O=C(O)C(CO)N=Cc1c(O)c2ccccc2oc1=O (stereo unspecified) | inconclusive: 18.4 µM [activator, partial curve, poor fit] | –
68 | Cc1ncsc1C(=O)N1N=C2/C(=C/c3ccccc3)CCCC2C1c1ccccc1 (stereo unspecified) | inconclusive: 20.6 µM [activator, partial curve, poor fit] | –
69 | Cc1ccccc1-c1nc(CS(=O)(=O)CC(=O)NC2CC2)c(C)o1 | inconclusive: 29.1 µM [activator, single point] | –
70 | N=c1sccn1CC(=O)Nc1ccccc1Oc1ccccc1 | – | inactive: -13.1%
71 | Nc1nonc1C(=O)NCCNCc1c(OCc2ccccc2F)ccc2ccccc12 | inconclusive: 31.6 µM [activator, single point] | –

Pulled one by one from above, two records:
Row | Compound | Potency | re-replication activation
65 | CCCCNC(=O)N1CCN(S(C)(=O)=O)CC1 | inconclusive: 29.1 µM [activator, single point] | –
53 | Cc1ccc(S(=O)(=O)NCCC(=O)NNC(=O)c2ccccc2O)cc1C | inconclusive: 20.6 µM [activator, single point] | –
